Consider one substance from article PMC7980224.

Protein sequences, listed by entry. Tags and fused reporters are not part of them. Lines headed by an entry give the natural chain unless they say otherwise; changes in a name come on top.
UniProt Q9NV88, whole entry: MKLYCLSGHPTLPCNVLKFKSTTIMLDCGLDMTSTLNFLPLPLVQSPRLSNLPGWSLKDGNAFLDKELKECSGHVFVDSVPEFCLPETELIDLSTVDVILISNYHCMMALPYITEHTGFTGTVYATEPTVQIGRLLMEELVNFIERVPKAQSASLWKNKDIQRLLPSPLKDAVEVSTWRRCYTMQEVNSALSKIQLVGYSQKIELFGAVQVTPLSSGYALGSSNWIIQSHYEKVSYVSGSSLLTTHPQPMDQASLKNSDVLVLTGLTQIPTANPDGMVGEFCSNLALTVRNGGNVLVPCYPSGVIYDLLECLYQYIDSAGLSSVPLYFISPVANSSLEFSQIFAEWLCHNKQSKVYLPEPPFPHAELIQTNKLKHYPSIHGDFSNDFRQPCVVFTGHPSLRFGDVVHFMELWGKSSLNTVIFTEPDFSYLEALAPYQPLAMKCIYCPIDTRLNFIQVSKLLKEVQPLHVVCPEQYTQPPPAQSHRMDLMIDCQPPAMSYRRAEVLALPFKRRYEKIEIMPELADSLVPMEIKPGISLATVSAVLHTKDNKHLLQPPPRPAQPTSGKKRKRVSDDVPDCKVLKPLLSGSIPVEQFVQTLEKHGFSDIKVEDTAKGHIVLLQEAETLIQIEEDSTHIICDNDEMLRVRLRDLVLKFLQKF
UniProt Q96HW7, whole entry: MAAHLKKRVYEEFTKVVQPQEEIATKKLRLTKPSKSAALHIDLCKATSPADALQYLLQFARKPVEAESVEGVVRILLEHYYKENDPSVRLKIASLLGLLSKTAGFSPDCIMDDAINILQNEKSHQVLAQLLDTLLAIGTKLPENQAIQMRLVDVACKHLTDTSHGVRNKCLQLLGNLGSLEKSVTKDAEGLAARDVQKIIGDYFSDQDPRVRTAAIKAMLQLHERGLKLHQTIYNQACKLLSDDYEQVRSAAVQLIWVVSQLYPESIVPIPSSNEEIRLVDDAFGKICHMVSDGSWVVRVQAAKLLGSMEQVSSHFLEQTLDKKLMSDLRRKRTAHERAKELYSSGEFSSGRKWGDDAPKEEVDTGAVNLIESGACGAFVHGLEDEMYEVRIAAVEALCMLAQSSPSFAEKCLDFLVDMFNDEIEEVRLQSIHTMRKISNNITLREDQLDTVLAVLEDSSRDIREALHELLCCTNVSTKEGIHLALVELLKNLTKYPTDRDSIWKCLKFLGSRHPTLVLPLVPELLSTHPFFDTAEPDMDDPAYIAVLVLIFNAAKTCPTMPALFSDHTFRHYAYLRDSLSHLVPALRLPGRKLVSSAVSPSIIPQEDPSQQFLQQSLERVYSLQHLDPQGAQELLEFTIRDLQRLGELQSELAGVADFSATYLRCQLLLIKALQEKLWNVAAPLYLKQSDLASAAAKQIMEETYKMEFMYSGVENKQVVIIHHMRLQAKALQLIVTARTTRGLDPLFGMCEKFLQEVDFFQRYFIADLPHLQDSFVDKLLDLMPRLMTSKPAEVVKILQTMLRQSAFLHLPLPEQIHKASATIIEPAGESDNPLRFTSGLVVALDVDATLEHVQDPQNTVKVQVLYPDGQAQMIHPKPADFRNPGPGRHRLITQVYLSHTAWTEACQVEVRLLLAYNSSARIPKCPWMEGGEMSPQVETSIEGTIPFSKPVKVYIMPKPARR

Results are given in words; binding and its absence hold for the method and conditions named. Binding seen in cells or lysates may run through a third protein. Some entries that bind do so weakly or less than the wild type.

This test deals with 3xHA-INTS9 (UniProt Q9NV88). Kind of test: co-IP; SBP-INTS4, 3xHA-INTS9 and 3xFLAG-INTS11 variants co-expressed in HEK293T; HA-agarose (bait 3xHA-INTS9), 150 mM KCl, 20 mM HEPES-KOH pH 7.8, 0.1% Triton X-100 in lysis; western blot.

In the case of SBP-INTS4 (from UniProt Q96HW7 1-963), the binding entry was “binds”.
